Not every detail of the peptide structures is certain; ends, links or a residue may be inferred. Some compounds share one wording; it may come from a single statement. Ends that are not written are not given here.
Tested on: LPS-induced cytokine production in BMDMs
Test: Cytokine ELISA in supernatant of LPS-treated BMDMs
Format: cell-based, mouse
Settings: LPS 100 ng/mL, 18 h
Source text: FIG. 2. Preparation of TLR4/MD2/RAGE-interacting motifs of HMGB1 or PTX3; • (A and B) Schematic diagram of HMGB1 (A) and PTX3 (B) domains. Glutathione s-transferase (GST)-tagged truncates including the TLR4-, RAGE-, or MD2-binding domains of HMGB1 or PTX3 were constructed. […] HEK293T cells transfected with the GST-tagged constructs in combination with HA-TLR4, Myc-RAGE or His-MD2 were confirmed by GST-pulldown. Western blots of WCLs and eluates after GST-pulldown are shown, using glyceraldehyde 3-phosphate dehydrogenase (GAPDH) as a loading control in WCLs. Based on the pulldown binding results, TLR4-, MD2-, and RAGE-targeted peptides were constructed and prepared as an H-T, H-R, P-T, or P-M peptide (indicated in panels A and B); • (C) BMDMs were incubated with the H-T, H-R, P-T, or P-M peptide at the indicated concentrations for 48 h, and then cell viability was measured by a cell viability assay. […] They were immunoprecipitated with αFlag for two hours, separated by sodium dodecyl sulfate-polyacrylamide gel electrophoresis (SDS-PAGE), and evaluated by immunoblotting; • (E) Competition between rHMGB1 (top) or PTX3 (bottom) and the constructed peptides for their respective receptors. […] TNF-α, IL-6, IL-12p40, and IL-10 levels in the supernatant of the indicated peptide-treated BMDMs, along with LPS (100 ng/mL, 18 h), were determined by ELISA. […]

**Q.** FKDPNAPKRP [H-T] was tested. Which IL-10 levels did it give?
**A.** without changes

**Q.** And the “production of inflammatory cytokines (TNF-α, IL-6, IL-12p40)” value?
**A.** reduction
